Test results: publication doi:10.1101/032581
No constants are given. Whether binding was seen depends on the method and setting. In cells and extracts the contact can be indirect. Some results given as binding are weak or reduced against the parent protein; the word gives no strength. Tags and fused reporters may be left off the sequences shown.

By UniProt entry, the sequences of proteins in these tests, tags left out.
UniProt P40562: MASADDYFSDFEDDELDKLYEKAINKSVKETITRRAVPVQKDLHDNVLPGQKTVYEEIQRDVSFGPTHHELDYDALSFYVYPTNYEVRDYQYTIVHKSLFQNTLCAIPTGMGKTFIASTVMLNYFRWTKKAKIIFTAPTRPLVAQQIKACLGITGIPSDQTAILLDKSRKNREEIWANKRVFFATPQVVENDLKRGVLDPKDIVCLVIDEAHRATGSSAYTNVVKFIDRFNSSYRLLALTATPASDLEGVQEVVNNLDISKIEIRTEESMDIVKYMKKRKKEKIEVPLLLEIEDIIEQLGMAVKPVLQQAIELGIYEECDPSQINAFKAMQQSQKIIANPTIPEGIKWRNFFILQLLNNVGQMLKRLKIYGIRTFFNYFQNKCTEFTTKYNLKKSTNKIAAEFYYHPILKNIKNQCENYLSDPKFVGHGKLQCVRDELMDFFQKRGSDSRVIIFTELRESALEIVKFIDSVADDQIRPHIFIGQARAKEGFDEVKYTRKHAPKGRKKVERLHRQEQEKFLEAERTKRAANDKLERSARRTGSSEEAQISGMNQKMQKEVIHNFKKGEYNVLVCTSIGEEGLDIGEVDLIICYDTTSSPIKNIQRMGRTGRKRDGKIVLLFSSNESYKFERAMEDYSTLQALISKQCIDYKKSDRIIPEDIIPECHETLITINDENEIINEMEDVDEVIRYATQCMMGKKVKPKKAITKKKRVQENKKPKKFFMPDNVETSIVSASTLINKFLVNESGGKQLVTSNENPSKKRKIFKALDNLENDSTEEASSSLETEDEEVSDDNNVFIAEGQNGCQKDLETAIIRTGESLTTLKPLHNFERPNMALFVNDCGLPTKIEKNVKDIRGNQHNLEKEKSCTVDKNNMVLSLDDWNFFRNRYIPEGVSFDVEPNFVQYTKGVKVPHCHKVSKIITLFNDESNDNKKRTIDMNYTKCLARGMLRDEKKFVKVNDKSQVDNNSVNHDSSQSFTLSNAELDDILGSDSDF

T1: Mte1-10flag (S. cerevisiae (budding yeast)) (UniProt P53227)
T1 sequence: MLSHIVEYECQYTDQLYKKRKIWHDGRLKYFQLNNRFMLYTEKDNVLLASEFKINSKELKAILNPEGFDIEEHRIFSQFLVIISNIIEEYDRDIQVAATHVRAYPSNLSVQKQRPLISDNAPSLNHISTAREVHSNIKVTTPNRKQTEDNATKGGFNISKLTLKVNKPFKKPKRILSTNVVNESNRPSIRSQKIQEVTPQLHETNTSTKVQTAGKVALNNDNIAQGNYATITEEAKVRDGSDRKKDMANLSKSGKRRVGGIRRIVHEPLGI


Key:
[1] = target: T1, Mte1-10flag (S. cerevisiae (budding yeast)); assay: co-IP
[2] = target: Mph1-3HA (S. cerevisiae (budding yeast)) (UniProt P40562); assay: co-IP

binding [1] | binding [2] | Molecule
binds | – | Mph1-3HA (from UniProt P40562 1-993)
– | binds | Mte1-10flag (protein, UniProt P53227 1-271) MLSHIVEYECQYTDQLYKKRKIWHDGRLKYFQLNNRFMLYTEKDNVLLASEFKINSKELKAILNPEGFDIEEHRIFSQFLVIISNIIEEYDRDIQVAATHVRAYPSNLSVQKQRPLISDNAPSLNHISTAREVHSNIKVTTPNRKQTEDNATKGGFNISKLTLKVNKPFKKPKRILSTNVVNESNRPSIRSQKIQEVTPQLHETNTSTKVQTAGKVALNNDNIAQGNYATITEEAKVRDGSDRKKDMANLSKSGKRRVGGIRRIVHEPLGI
